## Library screening results

Protein sequences, listed by entry. Tags and fused reporters are not part of them.
UniProt E9BF75, entry or part of it: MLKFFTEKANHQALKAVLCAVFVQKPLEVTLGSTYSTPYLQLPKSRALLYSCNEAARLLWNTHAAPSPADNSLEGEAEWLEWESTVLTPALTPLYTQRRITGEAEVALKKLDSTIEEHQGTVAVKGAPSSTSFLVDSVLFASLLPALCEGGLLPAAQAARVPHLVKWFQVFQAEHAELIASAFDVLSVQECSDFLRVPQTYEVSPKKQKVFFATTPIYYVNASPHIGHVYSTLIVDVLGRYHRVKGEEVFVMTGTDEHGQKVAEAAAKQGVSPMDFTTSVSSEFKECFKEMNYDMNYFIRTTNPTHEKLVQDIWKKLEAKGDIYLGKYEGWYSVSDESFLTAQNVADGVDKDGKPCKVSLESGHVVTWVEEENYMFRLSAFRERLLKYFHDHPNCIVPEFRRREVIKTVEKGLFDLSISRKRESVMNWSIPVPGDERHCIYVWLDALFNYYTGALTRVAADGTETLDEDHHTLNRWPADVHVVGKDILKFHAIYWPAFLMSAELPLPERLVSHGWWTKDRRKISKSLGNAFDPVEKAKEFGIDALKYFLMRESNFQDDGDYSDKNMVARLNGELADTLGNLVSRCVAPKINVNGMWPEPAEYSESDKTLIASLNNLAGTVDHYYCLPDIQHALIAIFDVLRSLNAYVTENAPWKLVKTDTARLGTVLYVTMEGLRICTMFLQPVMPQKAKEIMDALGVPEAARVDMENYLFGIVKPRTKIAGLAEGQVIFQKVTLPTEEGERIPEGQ

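Methionyl-tRNA synthetase (putative), Leishmania donovani (UniProt E9BF75). Primary screen of methionyl-tRNA synthetase; the read-out is not stated. The test concentration is not given. Values are per cent inhibition. Size under these conditions: about 68,000 compounds, about 24 of them at 50% or above in at least one test.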

Results are percentages, as filed.
The record does not define 0% and 100%; most values in the screen are far below 50% and negative numbers occur (in some assays of this library far below -100).
The compounds are a random part of those screened.

Compound,inhibition
Cn1cc(CCC(=O)N2C[C@H]3CC[C@@H]2CN(Cc2ccccc2)C3)cn1,16.81
CN(C)CCn1c2c(ccc1=O)CC(NC(=O)NC1CCCC1)CC2 (stereo not given),3.279
COc1ccccc1CN1CCCCC1c1n[nH]cc1-c1cc(C)no1 (stereo not given),14.92
Cn1cnnc1CNC(=O)Nc1cc(C(F)(F)F)c[nH]c1=O,11.22
NCC(c1cccnc1)N1CCOCC1 (stereo not given),11.49
CN(C)C(=O)COCC1CN(Cc2ccsc2)Cc2nccn2C1 (stereo not given),-0.6667
COc1cccc(CNC(=O)N2CCN(Cc3cc(C)on3)CC2)c1,3.286
c1cc(CN2CCCC2)cc(-n2ccnc2-c2ccncc2)c1,17.07
Cn1ccnc1C(=O)NCc1cc(=O)n2c(n1)CN(CC1CC1)CCC2,10.8
Cc1ccc(F)c2c1N(C(=O)c1ccc(S(C)(=O)=O)cc1)CCC2,17.93
CCc1nc(CN(C)C(=O)c2cc(CN(CC)CC)c(CC)o2)no1,6.989
O=C(c1cnc(-c2cccs2)s1)N1CCCC(n2cccn2)C1 (stereo not given),13.73
CNc1cc(N2CCCC2CNCc2csc(C)n2)ncn1 (stereo not given),15.79
CC(C)n1ccnc1CN1CCOC(C)(C(=O)N2CCOCC2)C1 (stereo not given),14.12
O=C(O)c1cc2c(nc1O)CC(c1cccc(Cl)c1)CC2=O (stereo not given),8.714
CN1CCN(C(=O)Cc2ccc(F)cc2)Cc2cccnc21,3.226
CC(C)C1CCCN1C(=O)Nc1ccc(=O)n(C)c1 (stereo not given),5.932
COCCn1cnnc1CN(C)c1nc(N)ncc1C,9.946
COc1ccc(C(=O)N2CCOCC2c2[nH]ncc2C)cc1F (stereo not given),14.6
CC(C)[C@H](NC(=O)NC1CCS(=O)(=O)C1)C(=O)Nc1cccnc1 (stereo not given in full),7.884
CC(=O)Nc1ccc(Cl)c(C(=O)N(C)Cc2nc(C)c[nH]2)c1,10.2
c1cncc(OC[C@@H]2CC[C@H]3[C@H](CCN3Cc3cccs3)O2)c1,14.98
Cc1nc(CNC(=O)Cn2nc(-c3ccc(F)cc3)oc2=O)cs1,18.37
CN(C)CCN1CCOCC2(CCCN(C(=O)c3cccc(O)c3)C2)C1 (stereo not given),20
CN(Cc1n[nH]c2c1CCCCC2)C(=O)c1cc(-c2cccn2C)n[nH]1,25.39
Cc1[nH]ncc1CCCNC(=O)N1CCCC(c2nncn2C)C1 (stereo not given),11.36
CC(C)C(C)NC(=O)Nc1ccc(F)c(C(N)=O)c1 (stereo not given),20.22
CN1CCN(Cc2cnc3n2CCN(CCc2ccccc2)C3)CC1,0.2208
COc1cccc(S(=O)(=O)Cc2cc(C)on2)c1,10.57
O=C(Nc1cnn(Cc2ccccc2)c1)N1CCN(CCO)CC1,18.95
Cc1ccc2c(c1)OC1(NC2=O)C(=O)N(C)c2ccccc21 (stereo not given),3.472
CN(Cc1cscn1)C1CCCN(c2cccnn2)C1 (stereo not given),13.39
COC(=O)N1CC[C@@]2(C1)[C@H](OC)CN(c1ccccc1)S2(=O)=O,9.041
CSc1ncn(-c2nc(N(C)C)nc(N(C)C)n2)n1,4.805
O=C(Cc1ccc(F)cc1Cl)N1CC[C@H](CO)[C@@H](O)C1,3.377
Cc1ccc(C(=O)N2C[C@@H](OCc3cccnc3)[C@H]3OCCC[C@H]32)o1,8.125
Cc1cccc(C(=O)N2CCCCC2c2[nH]ncc2S(C)(=O)=O)c1 (stereo not given),7.765
O=C(c1csc(C2CC2)n1)N1CCCC1Cn1cccn1 (stereo not given),6.983
Cn1cc(-c2nc(CN3CCCCC3Cn3cncn3)cs2)cn1 (stereo not given),8.169
CN(Cc1ccco1)Cc1ccccc1CNC(=O)c1cnc[nH]1,11.96
COc1ccc(-c2noc(C(N)CCSC)n2)cc1 (stereo not given),8.602
O=S(=O)(c1ccccc1)N1CCC[C@]2(C[C@@H](OCC3CC3)CO2)C1,1.333
Clc1ccccc1CCn1ccnc1-c1cn(C2CCNCC2)nn1,19.05
Cn1cc(C(=O)NCCC(=O)N2CCCCC2)c(-c2cccnc2)n1,18.75
CC(C)c1noc(CNc2cccc(-c3nnnn3C)c2)n1,11.56
O=C(CCCOc1ccccc1F)Nc1cc[nH]n1,13.26
O=C(Cc1ccc(F)c(Br)c1)NC1CCN(CC(F)F)CC1,19.88
CN(C)C(=O)N1C[C@@H]2COC[C@]2(CNS(C)(=O)=O)C1,5.051
CN1CCc2[nH]nc(C(=O)N3CCC4(CCCO4)CC3)c2C1,5.385
Cc1cncc(C(=O)N2CCNCC2C(=O)Nc2ccc(C)nc2)c1 (stereo not given),14.29
CCN(CC)Cc1cn2c(n1)CN(C(=O)Cc1ccsc1)CC2,8.589
CCC(C)N(Cc1cccnc1)Cc1cc2c(cc1OC)OCO2 (stereo not given),5.128

Once more, the final 5:

Compound	inhibition
CN(C)C(=O)N1C[C@@H]2COC[C@]2(CNS(C)(=O)=O)C1	5.051
CN1CCc2[nH]nc(C(=O)N3CCC4(CCCO4)CC3)c2C1	5.385
Cc1cncc(C(=O)N2CCNCC2C(=O)Nc2ccc(C)nc2)c1 (stereo not given)	14.29
CCN(CC)Cc1cn2c(n1)CN(C(=O)Cc1ccsc1)CC2	8.589
CCC(C)N(Cc1cccnc1)Cc1cc2c(cc1OC)OCO2 (stereo not given)	5.128

The values are deposited in ChEMBL (CHEMBL3988442, “University of Dundee, Small-Polar-MMV Screening Library” (2021)).